Results published in the supplement of paper PMC10849652.
Some of the results follow.

By UniProt entry, the sequences of proteins in these tests, tags left out. Where a name states a change or a piece, a line headed by the entry shows the natural chain unless it says otherwise.
UniProt O75556: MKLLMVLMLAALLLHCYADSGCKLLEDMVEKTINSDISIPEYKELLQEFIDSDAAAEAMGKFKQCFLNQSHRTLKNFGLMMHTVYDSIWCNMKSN
UniProt Q86WG5: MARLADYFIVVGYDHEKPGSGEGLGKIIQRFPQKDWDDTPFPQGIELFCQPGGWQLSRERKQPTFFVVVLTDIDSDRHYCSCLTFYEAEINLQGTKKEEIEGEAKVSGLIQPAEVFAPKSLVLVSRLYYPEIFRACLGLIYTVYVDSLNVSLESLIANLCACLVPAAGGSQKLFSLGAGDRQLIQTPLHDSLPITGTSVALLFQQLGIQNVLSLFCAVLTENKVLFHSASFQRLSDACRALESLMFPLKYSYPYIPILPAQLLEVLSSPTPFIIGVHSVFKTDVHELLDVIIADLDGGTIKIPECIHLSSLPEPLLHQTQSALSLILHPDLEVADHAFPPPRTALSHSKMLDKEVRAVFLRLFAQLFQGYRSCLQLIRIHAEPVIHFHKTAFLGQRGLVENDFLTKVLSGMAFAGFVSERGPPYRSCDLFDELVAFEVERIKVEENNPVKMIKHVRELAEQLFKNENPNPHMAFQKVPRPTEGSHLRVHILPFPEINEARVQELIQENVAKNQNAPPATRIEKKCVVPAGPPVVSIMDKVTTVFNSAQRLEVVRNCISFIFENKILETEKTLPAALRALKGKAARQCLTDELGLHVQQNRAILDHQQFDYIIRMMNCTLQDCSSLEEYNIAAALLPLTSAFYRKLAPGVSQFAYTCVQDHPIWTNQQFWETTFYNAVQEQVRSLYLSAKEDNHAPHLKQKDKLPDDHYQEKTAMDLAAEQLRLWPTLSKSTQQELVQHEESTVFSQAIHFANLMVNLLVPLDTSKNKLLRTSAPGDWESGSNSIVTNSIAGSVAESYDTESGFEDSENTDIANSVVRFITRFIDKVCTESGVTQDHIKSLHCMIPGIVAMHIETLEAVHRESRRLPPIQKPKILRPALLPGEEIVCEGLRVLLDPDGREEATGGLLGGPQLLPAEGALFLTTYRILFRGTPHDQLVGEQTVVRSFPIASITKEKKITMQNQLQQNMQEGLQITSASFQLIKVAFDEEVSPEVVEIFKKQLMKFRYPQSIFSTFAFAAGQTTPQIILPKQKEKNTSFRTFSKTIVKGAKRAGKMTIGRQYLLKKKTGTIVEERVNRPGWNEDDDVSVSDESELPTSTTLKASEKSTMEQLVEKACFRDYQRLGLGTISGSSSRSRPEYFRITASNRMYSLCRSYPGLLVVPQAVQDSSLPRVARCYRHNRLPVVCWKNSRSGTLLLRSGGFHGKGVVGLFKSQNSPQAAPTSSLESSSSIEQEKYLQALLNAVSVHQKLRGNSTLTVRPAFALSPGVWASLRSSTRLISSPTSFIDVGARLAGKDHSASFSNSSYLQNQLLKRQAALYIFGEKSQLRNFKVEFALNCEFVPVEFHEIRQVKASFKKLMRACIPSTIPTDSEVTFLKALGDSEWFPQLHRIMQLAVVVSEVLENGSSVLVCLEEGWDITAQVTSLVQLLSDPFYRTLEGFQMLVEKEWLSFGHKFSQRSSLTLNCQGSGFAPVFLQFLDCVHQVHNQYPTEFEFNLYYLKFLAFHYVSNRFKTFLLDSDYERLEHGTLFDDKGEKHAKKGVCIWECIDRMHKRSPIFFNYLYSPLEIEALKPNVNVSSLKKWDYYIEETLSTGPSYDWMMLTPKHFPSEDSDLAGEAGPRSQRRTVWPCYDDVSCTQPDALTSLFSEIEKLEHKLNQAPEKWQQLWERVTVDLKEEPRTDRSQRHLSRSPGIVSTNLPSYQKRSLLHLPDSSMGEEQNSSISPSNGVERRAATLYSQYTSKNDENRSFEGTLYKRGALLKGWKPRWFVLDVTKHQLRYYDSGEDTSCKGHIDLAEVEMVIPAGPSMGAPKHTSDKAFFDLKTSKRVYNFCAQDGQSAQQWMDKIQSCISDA
UniProt Q96IW7: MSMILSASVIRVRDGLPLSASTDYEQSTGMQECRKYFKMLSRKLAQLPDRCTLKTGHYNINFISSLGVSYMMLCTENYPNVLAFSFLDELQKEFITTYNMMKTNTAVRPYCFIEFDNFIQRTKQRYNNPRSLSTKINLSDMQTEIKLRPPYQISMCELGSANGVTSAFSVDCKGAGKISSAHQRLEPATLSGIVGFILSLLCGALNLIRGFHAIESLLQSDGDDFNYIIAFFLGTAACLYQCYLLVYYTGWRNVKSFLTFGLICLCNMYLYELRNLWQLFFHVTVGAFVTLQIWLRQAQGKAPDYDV
UniProt Q96NL6: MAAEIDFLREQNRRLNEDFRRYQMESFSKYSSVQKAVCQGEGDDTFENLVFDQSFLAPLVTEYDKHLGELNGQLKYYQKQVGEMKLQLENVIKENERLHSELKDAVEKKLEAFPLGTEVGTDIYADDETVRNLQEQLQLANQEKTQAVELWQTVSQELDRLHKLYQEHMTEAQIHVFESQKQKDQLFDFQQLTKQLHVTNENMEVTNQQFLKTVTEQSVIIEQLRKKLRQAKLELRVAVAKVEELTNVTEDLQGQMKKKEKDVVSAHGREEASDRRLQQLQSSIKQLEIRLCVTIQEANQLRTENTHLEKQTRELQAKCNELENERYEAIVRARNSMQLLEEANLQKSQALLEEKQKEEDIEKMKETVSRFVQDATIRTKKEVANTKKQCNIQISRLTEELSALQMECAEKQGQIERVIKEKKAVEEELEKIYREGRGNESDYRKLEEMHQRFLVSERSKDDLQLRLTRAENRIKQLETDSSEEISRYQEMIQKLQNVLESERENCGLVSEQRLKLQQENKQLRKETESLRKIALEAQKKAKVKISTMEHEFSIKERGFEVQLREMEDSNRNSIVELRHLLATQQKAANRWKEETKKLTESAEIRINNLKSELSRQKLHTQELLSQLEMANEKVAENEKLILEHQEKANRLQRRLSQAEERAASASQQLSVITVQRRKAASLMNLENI
UniProt O14828: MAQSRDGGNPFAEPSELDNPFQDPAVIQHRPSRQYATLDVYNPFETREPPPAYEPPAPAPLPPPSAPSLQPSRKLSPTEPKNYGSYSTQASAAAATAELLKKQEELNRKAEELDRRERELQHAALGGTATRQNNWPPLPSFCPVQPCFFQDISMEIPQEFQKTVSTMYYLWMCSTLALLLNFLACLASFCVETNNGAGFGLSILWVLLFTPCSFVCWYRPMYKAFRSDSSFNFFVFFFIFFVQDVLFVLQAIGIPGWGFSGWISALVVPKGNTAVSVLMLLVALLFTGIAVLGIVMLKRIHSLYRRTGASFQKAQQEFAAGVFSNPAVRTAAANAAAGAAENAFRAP
UniProt Q9HCY8: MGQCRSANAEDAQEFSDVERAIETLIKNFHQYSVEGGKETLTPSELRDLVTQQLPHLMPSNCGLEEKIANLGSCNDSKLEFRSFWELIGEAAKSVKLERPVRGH
UniProt Q92503: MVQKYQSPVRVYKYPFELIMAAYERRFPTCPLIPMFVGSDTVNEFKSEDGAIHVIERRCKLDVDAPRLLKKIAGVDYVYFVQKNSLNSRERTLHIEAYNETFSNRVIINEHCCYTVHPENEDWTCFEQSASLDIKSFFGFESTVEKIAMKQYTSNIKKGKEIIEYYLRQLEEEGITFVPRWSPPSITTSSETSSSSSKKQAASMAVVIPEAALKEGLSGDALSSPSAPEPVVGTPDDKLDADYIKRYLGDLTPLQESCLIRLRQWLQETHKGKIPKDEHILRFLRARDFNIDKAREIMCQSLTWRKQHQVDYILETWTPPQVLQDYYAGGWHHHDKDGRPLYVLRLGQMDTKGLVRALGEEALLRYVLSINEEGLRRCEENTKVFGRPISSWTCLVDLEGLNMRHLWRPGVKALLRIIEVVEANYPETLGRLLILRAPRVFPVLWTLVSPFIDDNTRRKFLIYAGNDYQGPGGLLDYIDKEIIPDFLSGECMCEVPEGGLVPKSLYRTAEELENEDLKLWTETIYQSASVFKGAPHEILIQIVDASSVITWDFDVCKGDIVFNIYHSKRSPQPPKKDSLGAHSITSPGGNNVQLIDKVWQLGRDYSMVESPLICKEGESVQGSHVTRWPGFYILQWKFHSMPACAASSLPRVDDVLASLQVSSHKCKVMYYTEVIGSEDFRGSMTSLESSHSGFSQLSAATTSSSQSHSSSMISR
UniProt Q8IZE3: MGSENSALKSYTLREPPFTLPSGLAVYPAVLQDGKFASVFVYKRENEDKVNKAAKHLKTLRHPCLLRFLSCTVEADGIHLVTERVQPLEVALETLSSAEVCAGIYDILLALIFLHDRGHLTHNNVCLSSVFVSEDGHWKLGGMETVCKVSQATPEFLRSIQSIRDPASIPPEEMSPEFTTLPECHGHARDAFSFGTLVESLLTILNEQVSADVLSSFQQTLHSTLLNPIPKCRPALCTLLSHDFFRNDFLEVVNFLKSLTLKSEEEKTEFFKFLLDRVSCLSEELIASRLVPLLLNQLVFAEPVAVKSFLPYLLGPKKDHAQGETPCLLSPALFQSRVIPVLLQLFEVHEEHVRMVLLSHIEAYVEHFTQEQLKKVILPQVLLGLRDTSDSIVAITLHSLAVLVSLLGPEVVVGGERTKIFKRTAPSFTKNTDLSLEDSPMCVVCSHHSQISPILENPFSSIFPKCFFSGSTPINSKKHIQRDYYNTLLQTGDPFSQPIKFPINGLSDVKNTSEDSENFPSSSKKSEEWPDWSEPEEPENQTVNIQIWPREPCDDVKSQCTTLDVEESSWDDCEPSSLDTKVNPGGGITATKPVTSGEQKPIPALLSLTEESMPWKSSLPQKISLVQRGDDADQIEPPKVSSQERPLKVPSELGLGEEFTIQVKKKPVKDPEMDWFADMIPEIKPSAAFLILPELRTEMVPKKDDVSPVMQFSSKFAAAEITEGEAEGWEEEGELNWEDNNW
UniProt P29034: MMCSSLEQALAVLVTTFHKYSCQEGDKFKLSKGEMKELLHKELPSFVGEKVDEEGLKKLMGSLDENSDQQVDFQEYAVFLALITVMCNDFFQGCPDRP
UniProt Q14160: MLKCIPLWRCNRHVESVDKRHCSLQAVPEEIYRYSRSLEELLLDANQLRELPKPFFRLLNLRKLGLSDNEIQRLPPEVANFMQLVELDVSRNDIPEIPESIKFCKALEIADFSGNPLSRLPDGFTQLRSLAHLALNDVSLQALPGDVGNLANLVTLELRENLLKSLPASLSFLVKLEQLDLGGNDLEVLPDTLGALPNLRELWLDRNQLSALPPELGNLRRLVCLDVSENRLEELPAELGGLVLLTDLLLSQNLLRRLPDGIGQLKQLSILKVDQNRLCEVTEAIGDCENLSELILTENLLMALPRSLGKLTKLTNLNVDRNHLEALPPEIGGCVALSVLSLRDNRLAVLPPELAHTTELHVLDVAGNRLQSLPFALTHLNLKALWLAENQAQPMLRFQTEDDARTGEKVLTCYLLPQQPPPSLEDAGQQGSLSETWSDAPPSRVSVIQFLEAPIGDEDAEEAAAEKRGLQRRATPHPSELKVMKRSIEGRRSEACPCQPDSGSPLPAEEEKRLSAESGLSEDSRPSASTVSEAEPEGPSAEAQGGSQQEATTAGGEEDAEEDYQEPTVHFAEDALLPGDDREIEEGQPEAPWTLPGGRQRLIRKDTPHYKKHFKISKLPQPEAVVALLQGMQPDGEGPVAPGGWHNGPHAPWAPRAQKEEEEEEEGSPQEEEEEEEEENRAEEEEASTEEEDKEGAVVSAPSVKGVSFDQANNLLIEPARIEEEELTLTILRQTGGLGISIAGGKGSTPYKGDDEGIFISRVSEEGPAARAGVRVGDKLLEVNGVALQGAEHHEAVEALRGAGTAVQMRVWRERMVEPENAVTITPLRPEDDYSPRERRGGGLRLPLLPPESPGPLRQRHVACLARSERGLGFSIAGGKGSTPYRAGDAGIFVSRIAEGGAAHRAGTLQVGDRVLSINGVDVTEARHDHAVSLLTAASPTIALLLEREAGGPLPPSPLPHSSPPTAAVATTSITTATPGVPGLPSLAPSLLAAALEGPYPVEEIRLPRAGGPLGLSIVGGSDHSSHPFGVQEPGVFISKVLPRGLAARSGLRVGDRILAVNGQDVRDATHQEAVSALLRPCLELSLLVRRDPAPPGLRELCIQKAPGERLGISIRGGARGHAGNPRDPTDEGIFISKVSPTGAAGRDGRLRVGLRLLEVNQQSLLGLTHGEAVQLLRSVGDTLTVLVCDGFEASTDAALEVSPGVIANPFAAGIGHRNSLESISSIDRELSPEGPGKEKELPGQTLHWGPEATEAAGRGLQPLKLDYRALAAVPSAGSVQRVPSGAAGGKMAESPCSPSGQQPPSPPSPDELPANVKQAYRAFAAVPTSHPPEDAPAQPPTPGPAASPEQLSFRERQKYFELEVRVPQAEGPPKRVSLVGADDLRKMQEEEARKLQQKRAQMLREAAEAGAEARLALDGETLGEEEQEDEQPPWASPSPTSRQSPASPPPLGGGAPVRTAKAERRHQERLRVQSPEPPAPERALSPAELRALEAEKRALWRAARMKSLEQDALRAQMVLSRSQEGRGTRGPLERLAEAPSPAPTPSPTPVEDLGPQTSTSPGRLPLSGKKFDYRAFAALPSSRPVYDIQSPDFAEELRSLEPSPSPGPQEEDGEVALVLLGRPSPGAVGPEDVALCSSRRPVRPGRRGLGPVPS

Assays:
Experiment in all cases: log2 fold change, soluble protein after heating vs DMSO (PISA); higher = thermal stabilisation; K562 cells, 10 uM, 30 min; active = over 0.2 and 3.5 SD of the protein, either way, in both replicates (recomputed)
[1] = compound: CC1=C(C=C(C=C1)NC(=O)C2=CC(=CC=C2)C(C)(C)C#N)NC3=CC4=C(C=C3)N=CN(C4=O)C
Procedure, shortened: (§1)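 Thermal stability values are relative to control samples and come from duplicates. They are expressed as log2 fold changes. For measurement, K562 cells (2×10^6 cells/mL) received 10 μM compound for 30 min, and aliquots were heated for 3 min over 48°C-58°C, pooled, and extracted at 4°C in PBS with 0.5% NP-40. Soluble protein, the supernatant after 21,000xg for 90 min, was quantified by TMTpro 16plex LC-MS/MS with equalised channel sums.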

[2] = compound: CCCCN(Cc1ccc(C(=O)NO)cc1)C(=O)Nc1ccccc1 [Nexturastat A]
Procedure, shortened: as §1

[3] = compound: CCN(CCCOc1ccc2c(Nc3cc(CC(=O)Nc4cccc(F)c4)[nH]n3)ncnc2c1)CCOP(=O)(O)O [barasertib]
Procedure, shortened: as §1

[4] = compound: CC[C@H](C)[C@@H](C(=O)N[C@@H]([C@@H](C)O)C(=O)N[C@@H](CC(C)C)C(=O)[C@]1(CO1)C)NC(=O)[C@H]([C@@H](C)CC)N(C)C(=O)C [epoxomicin]
Procedure, shortened: as §1

[5] = compound: CN(CCOC1=CC=C(C=C1)C[C@H]2C(=O)NC(=O)S2)C3=CC=CC=N3 (racemic) [rosiglitazone]
Procedure, shortened: as §1

[6] = compound: CCCc1cc(C)[nH]c(=O)c1CNC(=O)c1cc(-c2ccnc(N3CCN(C)CC3)c2)cc2c1cnn2C(C)C
Procedure, shortened: as §1

[7] = compound: CC[C@H](C)N1C=C(C2=C(C=C(C=C21)C3=CN=C(C=C3)N4CCNCC4)C(=O)NCC5=C(C=C(NC5=O)C)C)C
Procedure, shortened: as §1

[8] = compound: CC1=C(C=C(C=C1)NC(=O)C2=CC(=CC=C2)N(C)C)NC(=O)C3=CC=C(C=C3)O
Procedure, shortened: as §1

[9] = compound: CCn1cc(-c2ccnc3[nH]c(-c4cccc(CN(C)C)c4)cc23)c(-c2ccc(NC(=O)N(C)C)cc2)n1
Procedure, shortened: as §1

[10] = compound: CN1C2=C(C3=C1C(=O)N(N=C3)CC4=CC(=CC=C4)N)SC(=C2)S(=O)C
Procedure, shortened: as §1

[11] = compound: CN1CCC(CNc2ccc3ncc(-c4cccc(OC(F)(F)F)c4)n3n2)CC1
Procedure, shortened: as §1

[12] = compound: CC1=CC=C(C=C1)SC2=C3C=C(SC3=CN=C2)C(=O)N
Procedure, shortened: as §1

[13] = compound: CCCS(=O)(=O)Nc1ccc(F)c(C(=O)c2c[nH]c3ncc(-c4ccc(Cl)cc4)cc23)c1F [vemurafenib]
Procedure, shortened: as §1

[14] = compound: CCCS(=O)(=O)Nc1ccc(F)c(C(=O)c2c[nH]c3ncc(Cl)cc23)c1F
Procedure, shortened: as §1

[15] = compound: CC[C@@H]1C(=O)N(C)c2cnc(Nc3ccc(C(=O)N[C@H]4CC[C@H](N5CCN(CC6CC6)CC5)CC4)cc3OC)nc2N1C(C)C [volasertib]
Procedure, shortened: as §1

[16] = compound: CN(C)CC(=O)Nc1ccc2[nH]c(=O)c3ccccc3c2c1
Procedure, shortened: as §1

[17] = compound: CC1=NC(=CC=C1)C2=C(N=C(N2)C(C)(C)C)C3=CC4=NC=CN=C4C=C3
Procedure, shortened: as §1

[18] = compound: CCN(CC)Cc1ccc2cc(COC(=O)Nc3ccc(C(=O)NO)cc3)ccc2c1 [givinostat]
Procedure, shortened: as §1

[19] = compound: CCn1c(C(=O)N(C2CC2)C2CC2)cc2c3c(ncn3C)c(Nc3cc(C)n(C)n3)nc21
Procedure, shortened: as §1

[20] = compound: CC[C@@H]1C(=O)N(C)c2cnc(Nc3ccc(C(=O)NC4CCN(C)CC4)cc3OC)nc2N1C1CCCC1
Procedure, shortened: as §1

Measured: log2 fold change

RXRB isoform 3 (UniProt P28702)
inactive: [1] 0.067 | [2] 0.58 | [3] 0.195 | [4] 0.508 | [5] 0.079

SCGB2A1 (UniProt O75556)
inactive: [6] -0.095 | [3] 0.408 | [7] 1.35 | [5] -0.001

RTN4, A0A0U1RQR6
inactive: [2] 0.271 | [4] 0.088

SBF2 (UniProt Q86WG5)
inactive: [8] 0.02 | [2] -0.051 | [4] 0.072 | [9] -0.059 | [10] -0.091 | [11] -0.385

RTL10 (UniProt Q7L3V2)
inactive: [8] 0.266 | [12] 0.06 | [2] 0.083 | [13] 0.037 | [14] -0.056 | [6] -0.358 | [15] -0.27 | [4] 0.258 | [9] -0.026 | [16] -0.286 | [10] -0.013 | [11] 0.01

SEC22A (UniProt Q96IW7)
inactive: [8] 0.007 | [12] -0.02 | [17] 0.047 | [14] 0.001 | [18] -0.026 | [3] -0.075 | [15] -0.046 | [19] -0.059 | [9] -0.018 | [5] -0.103 | [10] -0.118 | [11] 0.077

S100A10 (UniProt P60903)
inactive: [1] 0.128 | [12] 0.181 | [14] -0.086 | [3] 0.113 | [20] 0.284 | [15] -0.048 | [7] 0.145 | [9] -0.056 | [11] -0.026

RRP1B (UniProt Q14684)
inactive: [1] -0.016 | [17] -0.022 | [2] 0.102 | [13] -0.054 | [6] 0.068 | [18] -0.07 | [20] -0.194 | [4] -0.097 | [19] -0.048 | [9] 0.142 | [16] -0.043 | [10] 0.083 | [11] -0.054

SCLT1 (UniProt Q96NL6)
inactive: [1] -0.057 | [17] -0.161 | [13] 0.045 | [6] 0.01 | [3] 0.049 | [7] -0.066 | [9] -0.116 | [16] -0.013 | [10] -0.089 | [11] -0.029

SCAMP3 isoform 2 (UniProt O14828)
inactive: [8] -0.043 | [12] -0.081 | [17] 0.109 | [2] 0.058 | [13] -0.183 | [14] 0.027 | [6] 0.119 | [3] 0.136 | [20] -0.002 | [15] 0.052 | [7] -0.096 | [4] 0.067 | [16] -0.051 | [5] -0.207

S100A14 (UniProt Q9HCY8)
inactive: [8] 0.208 | [13] 0.26 | [6] 0.337 | [18] 0.27 | [3] 0.337 | [20] 0.305 | [7] 0.158 | [19] -0.356 | [16] 0.178 | [5] 0.046 | [10] 0.816

RXRG (UniProt P48443)
inactive: [8] -0.05 | [9] -0.03 | [11] -0.101

S100A16 (UniProt Q96FQ6)
inactive: [17] -0.218 | [2] -0.278 | [13] 0.146 | [6] 0.048 | [18] 0.009 | [3] 0.505 | [20] 0.047 | [7] 0.394 | [4] 0.104 | [19] -0.004 | [16] -0.067 | [5] 0.017 | [10] 0.314

S100A4 (UniProt P26447)
inactive: [8] 0.103 | [12] 0.045 | [17] -0.085 | [14] -0.054 | [18] -0.026 | [20] 0.212 | [15] -0.042 | [7] 0.176 | [19] 0.023

SEC14L1 isoform 2 (UniProt Q92503)
inactive: [1] 0.034 | [2] 0.007 | [13] 0.003 | [18] 0.02 | [20] 0.056 | [4] -0.072 | [19] -0.053 | [9] -0.002 | [16] 0.132 | [10] -0.012 | [11] -0.362

SAP130 isoform 3 (UniProt Q9H0E3)
inactive: [8] 0.151 | [17] -0.12 | [13] 0.016 | [9] 0.022 | [16] 0.104 | [11] 0.119

SCYL3 isoform 2 (UniProt Q8IZE3)
inactive: [8] -0.061 | [12] -0.002 | [17] 0.005 | [2] 0.004 | [13] 0.008 | [14] 0.022 | [6] -0.01 | [18] 0.012 | [3] -0.012 | [20] -0.114 | [7] 0.047 | [4] 0.058 | [9] -0.101 | [16] -0.021 | [10] -0.05 | [11] -0.015
active: [15] -0.327

S100A2 (UniProt P29034)
inactive: [12] 0.096 | [13] 0.059 | [14] 0 | [6] 0.081 | [18] 0.655 | [3] 0.388 | [20] -0.174 | [15] 0.087 | [7] 0.596 | [19] -0.575 | [16] -0.241 | [5] 0.655 | [10] 0.594

SAMD4A (UniProt Q9UPU9)
inactive: [17] -0.046 | [2] 0.282 | [18] -0.01 | [4] -0.23 | [19] -0.019 | [10] 0.04

SDF2 (UniProt Q99470)
inactive: [12] -0.067 | [17] 0.149 | [2] 0.013 | [14] 0.158 | [18] 0.104 | [3] -0.105 | [15] -0.132 | [4] 0.124 | [19] 0.098 | [9] 0.011 | [5] 0.059 | [11] 0.003

SCOC (UniProt Q9UIL1)
inactive: [8] -0.116

SCRIB isoform 3 (UniProt Q14160)
inactive: [8] -0.082 | [17] -0.19 | [6] 0.375 | [18] 0.076 | [19] -0.217 | [9] -0.03 | [10] 0.124 | [11] 0.234

RXYLT1 (UniProt Q9Y2B1)
inactive: [12] 0.012 | [14] -0.19 | [18] -0.173 | [15] 0.094 | [7] -0.117 | [19] 0.094

SDHB, A0A087WXX8
inactive: [8] 0.01 | [12] -0.097 | [13] -0.017 | [14] -0.176 | [6] 0.045 | [18] 0.059 | [3] 0.028 | [15] -0.026 | [7] -0.026 | [19] -0.109 | [9] 0.1 | [16] 0.076 | [5] 0.094 | [10] -0.055 | [11] -0.041

Two consecutive records already listed, quoted:
SCRIB isoform 3 (UniProt Q14160)
inactive: [8] -0.082 | [17] -0.19 | [6] 0.375 | [18] 0.076 | [19] -0.217 | [9] -0.03 | [10] 0.124 | [11] 0.234

RXYLT1 (UniProt Q9Y2B1)
inactive: [12] 0.012 | [14] -0.19 | [18] -0.173 | [15] 0.094 | [7] -0.117 | [19] 0.094

(cont.)

RUBCN (UniProt Q92622)
inactive: [8] -0.013 | [13] -0.32 | [16] -0.154
